The values below come from patent US12433510B2, “Methods and systems for improved collection of interstitial fluid” (Georgia Tech Research Corporation, priority 2017, dated 2025).

Like-named read-outs stand apart in the source and are kept apart here.

The nature of the series: High-resolution metabolomics (LC-MS): prevalence of biomarkers in plasma, ISF and suction blister fluid.
Where [1] appears, read: biomarkers uniquely or predominately in ISF, 20 matched samples, ISF.
[2] abbreviates: biomarkers uniquely or predominately in ISF, 20 matched samples, SBF.
Setting [3] is: biomarkers uniquely or predominately in ISF, 20 matched samples, plasma.
Setting [4] is: metabolites unique to SBF, 20 samples, ISF.
Where [5] appears, read: metabolites unique to SBF, 20 samples, SBF.
The mark [6] stands for this setting: metabolites unique to SBF, 20 samples, plasma.
Where [7] appears, read: prevalence among 20 samples, plasma from venipuncture.
The mark [8] stands for this setting: prevalence among 20 samples, suction blister fluid.
The mark [9] stands for this setting: selected clinically relevant biomarkers, 20 matched samples, ISF.
Where [10] appears, read: selected clinically relevant biomarkers, 20 matched samples, SBF.
The mark [11] stands for this setting: selected clinically relevant biomarkers, 20 matched samples, plasma.

As for `CCCCCCCC/C=C\CCCCCCCC(=O)OCC(O)CO` (racemic) [1-Oleoyl-rac-glycerol], the “Prevalence of biomarker, ISF” value was 0%; the “Prevalence of biomarker, Plasma” value is listed as 5%; the “Prevalence of biomarker, SBF” value is 90%.
`CC[C@H]1[C@@H](O)[C@@H]2[C@H](CC[C@]3(C)[C@@H]([C@H](C)CCC(=O)O)CC[C@@H]23)[C@@]2(C)CC[C@@H](O)C[C@@H]12` [6-Ethylchenodeoxycholic acid]: under setting [1], the “Prevalence of biomarker, ISF” value was found to be 85%. The “Prevalence of biomarker, SBF” value under setting [2] was determined as 0%. The “Prevalence of biomarker, Plasma” value under setting [3] was found to be 0%.
Take `C[C@]12CCC(=O)C=C1CC[C@@H]1[C@@H]2CC[C@@]2(C)[C@H]1CC[C@]2(O)C(=O)CO` [11-Deoxycortisol]: the “Prevalence of biomarker, ISF” value under setting [4] is recorded as 0%. Further, under setting [5], the “Prevalence of biomarker, SBF” value is 100%. In addition, under setting [6], the “Prevalence of biomarker, Plasma” value was found to be 0%.
Turning to `O=C(O)CCCC/C=C\C[C@@H](O)/C=C/C=C/C=C\[C@@H](O)CCCC(=O)O` [20-COOH-Leukotriene B4], the “Prevalence of biomarker, ISF” value under setting [1] was 55%. Further, the “Prevalence of biomarker, SBF” value under setting [2] is reported as 5% and the “Prevalence of biomarker, SBF” value under setting [8] turned out to be 5%. Moreover, the “Prevalence of biomarker, Plasma” value was determined as 5% under setting [3] and 5% under setting [7].
With `Cc1o[nH]c(=O)c1CC(N)C(=O)O` (stereo not shown) [AMPA], the “Prevalence of biomarker, ISF” value came to 65%; the “Prevalence of biomarker, Plasma” value is on record as 10%; the “Prevalence of biomarker, SBF” value came to 90%.
Regarding `NC(=NCCC[C@H](N)C(=O)O)N[C@@H](CC(=O)O)C(=O)O` [Arginosuccinic acid], the “Prevalence of biomarker, ISF” value under setting [1] was found to be 95%. Under setting [2], the “Prevalence of biomarker, SBF” value worked out at 25%. Besides, the “Prevalence of biomarker, Plasma” value under setting [3] worked out at 0%.
In the case of `O=C1c2c(O)cccc2C([C@@H]2O[C@H](CO)[C@@H](O)[C@H](O)[C@H]2O)c2cc(CO)cc(O)c21` (stereo partly shown) [Barbaloin], the “Prevalence of biomarker, ISF” value under setting [1] is 70%. Under setting [2], the “Prevalence of biomarker, SBF” value is on record as 10%. The “Prevalence of biomarker, Plasma” value under setting [3] is reported as 0%.
Turning to `O=C(O)C(Cl)Br` (stereo not shown) [Bromochloroacetic acid], the “Prevalence of biomarker, ISF” value was 65%; the “Prevalence of biomarker, Plasma” value is reported as 5%; the “Prevalence of biomarker, SBF” value turned out to be 10%.
With `CC(C)CCC[C@@H](C)[C@H]1CC[C@H]2[C@@H]3CC=C4C[C@@H](O)CC[C@]4(C)[C@H]3CC[C@]12C` [Cholesterol], under setting [9], the “Prevalence of biomarker, ISF” value amounted to 80%. Also, under setting [10], the “Prevalence of biomarker, SBF” value was 100%. Also, the “Prevalence of biomarker, Plasma” value under setting [11] turned out to be 100%.
On to `C[C@]12C[C@H](O)[C@H]3[C@@H](CCC4=CC(=O)CC[C@@]43C)[C@@H]1CC[C@@H]2C(=O)CO` [Corticosterone], for which the “Prevalence of biomarker, ISF” value under setting [4] is on record as 0%. The “Prevalence of biomarker, SBF” value under setting [5] came out at 100%. Besides, the “Prevalence of biomarker, Plasma” value under setting [6] was determined as 0%.
`C[C@]12CCC(=O)C=C1CC[C@@H]1[C@@H]2[C@@H](O)C[C@@]2(C)[C@H]1CC[C@]2(O)C(=O)CO` [Cortisol]: under setting [9], the “Prevalence of biomarker, ISF” value stood at 30%. For the same molecule, the “Prevalence of biomarker, SBF” value under setting [10] stood at 80%. Under setting [11], the “Prevalence of biomarker, Plasma” value stood at 100%.
As to `OC1CCCCC1O` (stereo not shown) [Cyclohexane-1,2-diol], the “Prevalence of biomarker, Plasma” value under setting [7] was 5%. Besides, the “Prevalence of biomarker, SBF” value under setting [8] is listed as 10%.
As to `Nc1ccn([C@@H]2O[C@H](COP(=O)(O)O)[C@@H](O)[C@H]2O)c(=O)n1` [Cytidine monophosphate (CMP), Cytidine monophosphate], the “Prevalence of biomarker, Plasma” value under setting [7] is listed as 10%.
Turning to `OCCNCCO` [Diethanolamine], the “Prevalence of biomarker, ISF” value under setting [1] came to 100%. The “Prevalence of biomarker, SBF” value is listed as 60% under setting [2] and 60% under setting [8]. Further, the “Prevalence of biomarker, Plasma” value by setting is: under setting [3], 5%; under setting [7], 5%.
Turning to `C=C1CC[C@H](O)C/C1=C/C=C1\CCC[C@]2(C)[C@@H]([C@H](C)/C=C/[C@H](C)C(C)C)CC[C@@H]12` [Ergocalciferol], the “Prevalence of biomarker, Plasma” value under setting [7] turned out to be 5%. For the same molecule, under setting [8], the “Prevalence of biomarker, SBF” value came out at 0%.
For `C[C@]12CC[C@@H]3c4ccc(O)cc4CC[C@H]3[C@@H]1CC[C@@H]2OC(=O)CCC1CCCC1` [Estradiol cypionate], the “Prevalence of biomarker, ISF” value under setting [1] was determined as 100%. In addition, the “Prevalence of biomarker, SBF” value under setting [2] stood at 0%. The “Prevalence of biomarker, Plasma” value under setting [3] is reported as 0%.
Turning to `O=C(CO)[C@@H](O)[C@H](O)[C@H](O)COP(=O)(O)O` [Fructose 6-phosphate], under setting [7], the “Prevalence of biomarker, Plasma” value worked out at 0%. Also, the “Prevalence of biomarker, SBF” value under setting [8] stood at 100%.
For `Cc1c(O)cc2c(c1C)O[C@](C)(CCC[C@H](C)CCC[C@H](C)CCCC(C)C)CC2` [Gamma Tocopherol], under setting [1], the “Prevalence of biomarker, ISF” value is on record as 100%. Besides, the “Prevalence of biomarker, SBF” value under setting [2] worked out at 0%. Further, the “Prevalence of biomarker, Plasma” value under setting [3] is listed as 5%.
Regarding `O=C1O[C@@H]([C@H](O)CO)[C@@H](O)[C@H]1O` [Gulonolactone], under setting [7], the “Prevalence of biomarker, Plasma” value was 0%. For the same molecule, the “Prevalence of biomarker, SBF” value under setting [8] turned out to be 10%.
As for `N[C@@H](CCS)C(=O)O` [Homocysteine], the “Prevalence of biomarker, ISF” value under setting [9] is reported as 55%. Also, under setting [10], the “Prevalence of biomarker, SBF” value is on record as 55%. The “Prevalence of biomarker, Plasma” value under setting [11] is on record as 20%.
On to `O=c1[nH]cnc2nc[nH]c12` [Hypoxanthine], for which the “Prevalence of biomarker, ISF” value came out at 80% under setting [1] and 80% under setting [9]. The “Prevalence of biomarker, SBF” value reads like this: under setting [2], 100%; under setting [10], 100%. Besides, the “Prevalence of biomarker, Plasma” value is recorded as 0% under setting [3] and 0% under setting [11].
On to `OC[C@H]1O[C@@H](n2cnc3c(O)ncnc32)[C@H](O)[C@@H]1O` [Inosine], for which the “Prevalence of biomarker, ISF” value under setting [1] stood at 80%. For the same molecule, the “Prevalence of biomarker, SBF” value by setting is: under setting [2], 100%; under setting [8], 100%. Further, the “Prevalence of biomarker, Plasma” value is, setting by setting: under setting [3], 5%; under setting [7], 5%.
Take `CC(O)C(=O)O` (stereo not shown) [Lactic acid]: under setting [9], the “Prevalence of biomarker, ISF” value stood at 100%. Further, under setting [10], the “Prevalence of biomarker, SBF” value stood at 100%. Further, the “Prevalence of biomarker, Plasma” value under setting [11] is 75%.
In the case of `CCCCC/C=C\C[C@@H](O)/C=C/C=C/C=C\[C@@H](O)CCCC(=O)O` [Leukotriene B4], the “Prevalence of biomarker, ISF” value under setting [9] was found to be 100%. Under setting [10], the “Prevalence of biomarker, SBF” value worked out at 50%. The “Prevalence of biomarker, Plasma” value under setting [11] came to 50%.
Take `Cc1cc2nc3[nH]c(=O)[nH]c(=O)c3nc2cc1C` [Lumichrome]: the “Prevalence of biomarker, Plasma” value under setting [7] came to 5%. For the same molecule, the “Prevalence of biomarker, SBF” value under setting [8] is given as 10%.
`CCCCCCCCCCCCCCCCC(=O)O` [Margaric acid]: the “Prevalence of biomarker, ISF” value under setting [9] amounted to 100%. Under setting [10], the “Prevalence of biomarker, SBF” value worked out at 25%. The “Prevalence of biomarker, Plasma” value under setting [11] was determined as 60%.
On to `CN[C@@H](Cc1c[nH]cn1)C(=O)O` [Methyl-histidine], for which the “Prevalence of biomarker, ISF” value under setting [9] is 25%. Also, the “Prevalence of biomarker, SBF” value under setting [10] is recorded as 55%. Further, the “Prevalence of biomarker, Plasma” value under setting [11] stood at 80%.
`CCCC/C=C\CCCCCCCC(=O)O` [Myristoleic acid]: the “Prevalence of biomarker, ISF” value under setting [9] is 100%. For the same molecule, under setting [10], the “Prevalence of biomarker, SBF” value is on record as 45%. The “Prevalence of biomarker, Plasma” value under setting [11] worked out at 85%.
With `CC(C)=CCNc1ncnc2nc[nH]c12` [N6-(delta2-Isopentenyl)-adenine], the “Prevalence of biomarker, Plasma” value under setting [7] was found to be 0%. For the same molecule, under setting [8], the “Prevalence of biomarker, SBF” value is listed as 85%.
